We go through 40 molecules from the supplement of paper PMC8256030.

Each structure is given as a SMILES string. Where “and” joins values, the source holds several entries; their conditions need not be identical. Identical values can stand only once. The list shows a part of the results. Single values are uncertain here, since repeats match poorly.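 HEK293T cells were given each compound shortly before transfection with a reporter in which red mCherry is followed by the SARS-CoV-2 frameshift element and then GFP in the −1 frame, so GFP appears only after frameshifting.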

In the assay the test system is HEK293T. Briefly: percent viability (nuclei count) relative to control; higher = more viable cells. As to conditions: 10 µM; 24 h.
For the molecule `O=C(Nc1c(Cl)cncc1Cl)c1ccc(OC(F)F)c(OCC2CC2)c1` [roflumilast], the percent viability is 233%.

As to `OC[C@H]1O[C@@H](O[C@@H]2[C@@H](CO)OC(O)(CO)[C@H]2O)[C@H](O)[C@@H](O)[C@H]1O` (mixture of isomers) [lactulose], the percent viability is 175%.

As to `CCC(OC(N)=O)C1CCCCC1` (stereo not given) [procymate], the percent viability was found to be 227%.

Consider `CCCC(CCC)C(=O)O[C@H]1C[C@H]2CC[C@@H](C1)[N+]2(C)C` [octatropine methylbromide], for which the percent viability came out at 159%.

In the case of `CC(C)(C(=O)O)c1ccc(C(O)CCCN2CCC(C(O)(c3ccccc3)c3ccccc3)CC2)cc1` (stereo not given), the percent viability is 203%.

Regarding `O=c1[nH]c(=O)n([C@H]2C[C@H](O)[C@@H](CO)O2)cc1/C=C/Br` [brivudine], the percent viability was determined as 139%.

With `CNC(=O)[C@@H](NC(=O)[C@H](CC(C)C)[C@H](O)C(=O)NO)C(C)(C)C` [marimastat], the percent viability came to 145%.

Take `CC(=O)O[C@]1(C(C)=O)CC[C@H]2[C@@H]3C=C(C)C4=CC(=O)CC[C@]4(C)[C@H]3CC[C@@]21C`: the percent viability was determined as 112%.

For the molecule `O=c1[nH]c(=O)n([C@H]2C[C@H](O)[C@@H](CO)O2)cc1Br` [broxuridine], the percent viability came to 136%.

Consider `C[S+](CC[C@H](N)C(=O)[O-])C[C@H]1O[C@@H](n2cnc3c(N)ncnc32)[C@H](O)[C@@H]1O` (stereo not given in full) [ademetionine], for which the percent viability was 188%.

Take `CN(CC(=O)O)C(=N)N` [Creatine]: the percent viability was determined as 207%.

Turning to `CC(C(=O)O)c1ccc(N2CC=CC2)c(Cl)c1` (stereo not given) [pirprofen], the percent viability is 86.6%.

For `Nc1cc(C(Cl)=C(Cl)Cl)c(S(N)(=O)=O)cc1S(N)(=O)=O` [clorsulon], the percent viability came out at 200%.

On to `NCCCC[C@H](N[C@@H](CCc1ccccc1)C(=O)O)C(=O)N1CCC[C@H]1C(=O)O` [Lisinopril], for which the percent viability amounted to 205%.

As to `Cc1cc2c(cc1CC(=O)c1sccc1S(=O)(=O)Nc1onc(C)c1Cl)OCO2` [Thelin], the percent viability was 288%.

In the case of `NS(=O)(=O)c1cc2c(cc1Cl)NC(CSCC(F)(F)F)NS2(=O)=O` (stereo not given) [epitizide], the percent viability is 88.1%.

As to `CC(C)CN(C[C@@H](OP(=O)(O)O)[C@H](Cc1ccccc1)NC(=O)O[C@H]1CCOC1)S(=O)(=O)c1ccc(N)cc1` [fosamprenavir], the percent viability worked out at 268%.

As for `CCOc1ccc2nc3cc(N)ccc3c(N)c2c1`, the percent viability is 123%.

For `CCCCC(CC)CN1CN(CC(CC)CCCC)CC(C)(N)C1` (stereo not given) [hexetidine], the percent viability worked out at 208%.

For the molecule `CC(C)c1c(C(=O)Nc2ccccc2)c(-c2ccccc2)c(-c2ccc(F)cc2)n1CC[C@@H](O)C[C@@H](O)CC(=O)O` [atorvastatin], the percent viability is 133% and 253%.

As to `CC(=O)O[C@]1(C(C)=O)CC[C@H]2[C@@H]3C=C(Cl)C4=CC(=O)CC[C@]4(C)[C@H]3CC[C@@]21C`, the percent viability worked out at 218%.

On to `CCOc1ccccc1OC(c1ccccc1)C1CNCCO1` (stereo not given) [reboxetine], for which the percent viability was 288%.

As to `COc1ccc2nc3cc(Cl)ccc3c(Nc3cc(CN4CCCC4)c(O)c(CN4CCCC4)c3)c2n1` [pyronaridine], the percent viability was 26.2%.

Consider `Cc1cc(CC(=O)O)n(C)c1C(=O)c1ccc(Cl)cc1` [zomepirac], for which the percent viability was 162%.

Consider `CC(C)NCC(O)COc1cccc2c1N(C(=O)c1cccnc1)CCC2` (stereo not given) [nicainoprol], for which the percent viability stood at 208%.

Consider `COc1cc(C(=O)OCCN2CCN(CCCN3c4ccccc4Sc4ccc(Cl)cc43)CC2)cc(OC)c1OC` [metofenazate], for which the percent viability came out at 546%.

For `CC1=CC(=O)NS(=O)(=O)O1`, the percent viability came out at 123%.

Turning to `O=C1CN(/N=C/c2ncc(-c3ccc(Br)cc3)o2)C(=O)N1` [azumolene], the percent viability is 372%.

With `COC(=O)c1ccc2c(C(=Nc3ccc(N(C)C(=O)CN4CCN(C)CC4)cc3)c3ccccc3)c(O)[nH]c2c1` [Nintedanib], the percent viability is 359%.

With `CCOC(=O)[C@H](CCc1ccccc1)N[C@@H](C)C(=O)N1[C@H](C(=O)O)C[C@@H]2CCC[C@@H]21` [ramipril], the percent viability is 154% and 179%.

In the case of `CC(C)[C@H](N)C(=O)OCC(CO)OCn1cnc2c(=O)nc(N)[nH]c21` (stereo not given in full), the percent viability worked out at 376%.

As for `C[N+](C)(C)NCCC(=O)[O-]` [meldonium], the percent viability worked out at 344%.

`CCCCCCCCCCCCCCCC(=O)OC[C@H](O)[C@H]1OC(=O)C(O)=C1O`: the percent viability was 282%.

In the case of `CC(C)(C)CC(C)(C)c1ccc(O)c(-n2nc3ccccc3n2)c1` [octrizole], the percent viability amounted to 89.7%.

Take `Cc1cc(-n2c(=O)[nH]c(=O)n(C)c2=O)ccc1Oc1ccc(SC(F)(F)F)cc1` [toltrazuril]: the percent viability worked out at 294%.

With `Clc1ccc2nsnc2c1NC1=NCCN1` [tizanidine], the percent viability came to 16.1%.

Turning to `NCc1c[nH]c(=S)n1[C@H]1CCc2c(F)cc(F)cc2C1` [nepicastat], the percent viability was determined as 326%.

`C[C@H](CCC(=O)O)[C@H]1CC[C@H]2[C@@H]3CC[C@@H]4C[C@H](O)CC[C@]4(C)[C@H]3C[C@H](O)[C@]12C` [deoxycholic acid]: the percent viability is 193%.

For `CCc1nn(CCCN2CCN(c3cccc(Cl)c3)CC2)c(=O)n1CC` [etoperidone], the percent viability was 272%.

Take `CC(=O)Oc1ccccc1C(=O)O`: the percent viability worked out at 153%.
